Reference: article PMC4938514
Results are given in words; binding and its absence hold for the method and conditions named. For some of these results: In cells and extracts the contact can be indirect. Some binding calls cover weakened binding; strength is not graded here. For some of these results: Where a sequence is shown, tags or fusion partners need not be part of it.

The chains behind the UniProt entries cited, without tags or fusion partners. Where a name states a change or a piece, a line headed by the entry shows the natural chain unless it says otherwise. A line that says so, or that is headed by a name, gives the form on record, which may keep a tag or linker. Residues count along the entry.
PlxnA2-FL (full-length Plexin-A2) (P70207, residues 35-1894): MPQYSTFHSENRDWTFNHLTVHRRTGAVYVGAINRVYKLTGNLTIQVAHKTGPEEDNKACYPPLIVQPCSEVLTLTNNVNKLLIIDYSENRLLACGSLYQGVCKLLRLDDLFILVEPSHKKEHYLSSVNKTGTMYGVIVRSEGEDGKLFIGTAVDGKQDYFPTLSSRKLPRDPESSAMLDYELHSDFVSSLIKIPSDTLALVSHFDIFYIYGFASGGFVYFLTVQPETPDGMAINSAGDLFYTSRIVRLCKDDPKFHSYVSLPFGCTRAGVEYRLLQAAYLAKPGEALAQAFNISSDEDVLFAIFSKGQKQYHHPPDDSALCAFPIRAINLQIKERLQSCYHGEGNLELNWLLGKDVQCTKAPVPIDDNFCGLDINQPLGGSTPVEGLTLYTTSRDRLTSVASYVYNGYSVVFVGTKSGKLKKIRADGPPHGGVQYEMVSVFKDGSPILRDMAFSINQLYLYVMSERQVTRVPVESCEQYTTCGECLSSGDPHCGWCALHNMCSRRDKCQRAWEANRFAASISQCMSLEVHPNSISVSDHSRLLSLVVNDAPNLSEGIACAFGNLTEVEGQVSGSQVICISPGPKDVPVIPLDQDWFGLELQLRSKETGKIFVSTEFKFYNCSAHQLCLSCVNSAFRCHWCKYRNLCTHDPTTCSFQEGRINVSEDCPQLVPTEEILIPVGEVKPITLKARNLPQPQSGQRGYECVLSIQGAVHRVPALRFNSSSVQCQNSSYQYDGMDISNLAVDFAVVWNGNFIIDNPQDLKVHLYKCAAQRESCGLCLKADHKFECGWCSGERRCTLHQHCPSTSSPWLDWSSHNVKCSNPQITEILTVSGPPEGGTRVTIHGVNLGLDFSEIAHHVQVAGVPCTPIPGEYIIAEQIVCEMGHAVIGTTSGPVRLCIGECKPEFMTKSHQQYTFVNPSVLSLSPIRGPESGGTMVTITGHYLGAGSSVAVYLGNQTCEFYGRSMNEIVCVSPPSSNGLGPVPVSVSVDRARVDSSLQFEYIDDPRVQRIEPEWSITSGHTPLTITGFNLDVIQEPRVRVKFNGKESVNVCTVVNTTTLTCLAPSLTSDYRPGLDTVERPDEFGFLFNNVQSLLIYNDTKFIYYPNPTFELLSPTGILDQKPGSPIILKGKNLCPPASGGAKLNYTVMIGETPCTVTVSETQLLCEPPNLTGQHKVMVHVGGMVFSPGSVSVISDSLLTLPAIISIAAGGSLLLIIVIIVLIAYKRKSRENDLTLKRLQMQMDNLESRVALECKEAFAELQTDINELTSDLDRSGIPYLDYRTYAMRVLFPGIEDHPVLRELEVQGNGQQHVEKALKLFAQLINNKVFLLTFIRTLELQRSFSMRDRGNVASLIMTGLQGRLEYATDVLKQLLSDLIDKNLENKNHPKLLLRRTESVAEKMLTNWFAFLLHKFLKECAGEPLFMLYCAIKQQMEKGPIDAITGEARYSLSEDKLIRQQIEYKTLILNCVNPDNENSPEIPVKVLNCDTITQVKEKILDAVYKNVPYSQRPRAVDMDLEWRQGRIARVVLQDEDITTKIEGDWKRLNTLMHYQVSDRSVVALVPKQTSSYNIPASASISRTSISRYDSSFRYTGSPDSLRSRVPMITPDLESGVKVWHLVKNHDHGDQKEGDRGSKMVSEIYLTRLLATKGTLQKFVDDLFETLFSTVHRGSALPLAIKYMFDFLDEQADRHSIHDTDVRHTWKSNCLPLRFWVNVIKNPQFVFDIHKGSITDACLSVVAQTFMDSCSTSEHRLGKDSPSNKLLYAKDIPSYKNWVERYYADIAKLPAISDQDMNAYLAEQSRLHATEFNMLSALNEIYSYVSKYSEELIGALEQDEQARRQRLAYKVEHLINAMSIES
PlxnA2-A396E (P70207, form named): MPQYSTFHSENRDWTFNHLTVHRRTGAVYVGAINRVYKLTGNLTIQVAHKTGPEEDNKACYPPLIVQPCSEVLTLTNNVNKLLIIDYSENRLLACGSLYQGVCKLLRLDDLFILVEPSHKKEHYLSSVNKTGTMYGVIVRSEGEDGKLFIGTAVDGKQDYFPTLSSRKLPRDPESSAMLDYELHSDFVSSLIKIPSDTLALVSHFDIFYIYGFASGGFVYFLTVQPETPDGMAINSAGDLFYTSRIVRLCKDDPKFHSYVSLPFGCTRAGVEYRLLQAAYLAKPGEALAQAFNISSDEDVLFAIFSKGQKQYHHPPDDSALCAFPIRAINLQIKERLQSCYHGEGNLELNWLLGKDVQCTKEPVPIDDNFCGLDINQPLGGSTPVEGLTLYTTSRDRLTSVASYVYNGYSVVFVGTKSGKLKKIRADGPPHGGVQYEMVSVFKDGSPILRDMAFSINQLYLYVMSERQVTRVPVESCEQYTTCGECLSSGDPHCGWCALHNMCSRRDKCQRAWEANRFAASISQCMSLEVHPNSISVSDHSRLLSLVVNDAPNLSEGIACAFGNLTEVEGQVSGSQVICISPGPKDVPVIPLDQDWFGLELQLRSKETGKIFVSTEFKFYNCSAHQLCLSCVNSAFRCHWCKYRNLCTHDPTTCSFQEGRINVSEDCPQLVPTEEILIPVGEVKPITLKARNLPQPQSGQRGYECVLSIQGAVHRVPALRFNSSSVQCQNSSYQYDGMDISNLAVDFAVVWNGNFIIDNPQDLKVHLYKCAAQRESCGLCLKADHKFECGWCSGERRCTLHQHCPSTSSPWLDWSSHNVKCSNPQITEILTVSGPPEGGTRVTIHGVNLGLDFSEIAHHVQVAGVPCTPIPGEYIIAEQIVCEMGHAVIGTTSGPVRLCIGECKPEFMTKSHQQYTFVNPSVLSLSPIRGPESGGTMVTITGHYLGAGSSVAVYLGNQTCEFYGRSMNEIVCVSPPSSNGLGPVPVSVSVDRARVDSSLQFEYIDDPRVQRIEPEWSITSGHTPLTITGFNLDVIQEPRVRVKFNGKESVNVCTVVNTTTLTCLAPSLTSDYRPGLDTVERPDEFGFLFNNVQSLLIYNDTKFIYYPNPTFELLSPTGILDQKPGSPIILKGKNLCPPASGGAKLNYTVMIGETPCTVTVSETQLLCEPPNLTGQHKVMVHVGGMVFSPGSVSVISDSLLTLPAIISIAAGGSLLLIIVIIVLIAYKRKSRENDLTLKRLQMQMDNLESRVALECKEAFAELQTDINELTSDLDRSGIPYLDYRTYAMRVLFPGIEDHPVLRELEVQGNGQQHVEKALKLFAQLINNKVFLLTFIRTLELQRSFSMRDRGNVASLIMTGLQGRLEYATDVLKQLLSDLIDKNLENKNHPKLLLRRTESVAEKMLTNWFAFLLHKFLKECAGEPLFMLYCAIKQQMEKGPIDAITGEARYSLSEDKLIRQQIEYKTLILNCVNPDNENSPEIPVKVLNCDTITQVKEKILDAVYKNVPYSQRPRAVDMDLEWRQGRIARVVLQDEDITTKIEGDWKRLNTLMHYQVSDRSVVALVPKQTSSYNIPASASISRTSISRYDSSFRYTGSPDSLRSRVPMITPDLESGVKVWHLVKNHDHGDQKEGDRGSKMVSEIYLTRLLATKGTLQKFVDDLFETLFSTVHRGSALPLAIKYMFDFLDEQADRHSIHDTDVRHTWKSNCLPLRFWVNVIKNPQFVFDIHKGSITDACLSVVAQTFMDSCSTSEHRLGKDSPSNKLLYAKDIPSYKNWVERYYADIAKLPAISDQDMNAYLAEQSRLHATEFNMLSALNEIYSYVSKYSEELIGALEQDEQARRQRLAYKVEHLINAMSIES

B1: Sema6A-EC-AP-Fc-(His)6 (extracellular domain of Sema6A fused to alkaline phosphatase) (Fc fusion, UniProt O35464 19-649)
chain: GFPEDSEPISISHGNYTKQYPVFVGHKPGRNTTQRHRLDIQMIMIMNRTLYVAARDHIYTVDIDTSHTEEIYCSKKLTWKSRQADVDTCRMKGKHKDECHNFIKVLLKKNDDTLFVCGTNAFNPSCRNYRVDTLETFGDEFSGMARCPYDAKHANIALFADGKLYSATVTDFLAIDAVIYRSLGDSPTLRTVKHDSKWLKEPYFVQAVDYGDYIYFFFREIAVEYNTMGKVVFPRVAQVCKNDMGGSQRVLEKQWTSFLKARLNCSVPGDSHFYFNILQAVTDVIRINGRDVVLATFSTPYNSIPGSAVCAYDMLDIANVFTGRFKEQKSPDSTWTPVPDERVPKPRPGCCAGSSSLEKYATSNEFPDDTLNFIKTHPLMDEAVPSIINRPWFLRTMVRYRLTKIAVDNAAGPYQNHTVVFLGSEKGIILKFLARIGSSGFLNGSLFLEEMNVYNPEKCSYDGVEDKRIMGMQLDRASGSLYVAFSTCVIKVPLGRCERHGKCKKTCIASRDPYCGWVRESGSCAHLSPLSRLTFEQDIERGNTDGLGDCHNSFVALNGHASSLYPSTTTSDSASRDGYESRGGMLDWNDLLEAPGSTDPLGAVSSHNHQDKKGVIRESYLKSNDQLVPVT
B2: Sema6A-FL (full-length Semaphorin-6A), as transfected for the in situ binding and the Sema6A/PlxnA2 co-immunoprecipitations (protein, UniProt O35464 19-1031)
chain: GFPEDSEPISISHGNYTKQYPVFVGHKPGRNTTQRHRLDIQMIMIMNRTLYVAARDHIYTVDIDTSHTEEIYCSKKLTWKSRQADVDTCRMKGKHKDECHNFIKVLLKKNDDTLFVCGTNAFNPSCRNYRVDTLETFGDEFSGMARCPYDAKHANIALFADGKLYSATVTDFLAIDAVIYRSLGDSPTLRTVKHDSKWLKEPYFVQAVDYGDYIYFFFREIAVEYNTMGKVVFPRVAQVCKNDMGGSQRVLEKQWTSFLKARLNCSVPGDSHFYFNILQAVTDVIRINGRDVVLATFSTPYNSIPGSAVCAYDMLDIANVFTGRFKEQKSPDSTWTPVPDERVPKPRPGCCAGSSSLEKYATSNEFPDDTLNFIKTHPLMDEAVPSIINRPWFLRTMVRYRLTKIAVDNAAGPYQNHTVVFLGSEKGIILKFLARIGSSGFLNGSLFLEEMNVYNPEKCSYDGVEDKRIMGMQLDRASGSLYVAFSTCVIKVPLGRCERHGKCKKTCIASRDPYCGWVRESGSCAHLSPLSRLTFEQDIERGNTDGLGDCHNSFVALNGHASSLYPSTTTSDSASRDGYESRGGMLDWNDLLEAPGSTDPLGAVSSHNHQDKKGVIRESYLKSNDQLVPVTLLAIAVILAFVMGAVFSGIIVYCVCDHRRKDVAVVQRKEKELTHSRRGSMSSVTKLSGLFGDTQSKDPKPEAILTPLMHNGKLATPSNTAKMLIKADQHHLDLTALPTPESTPTLQQKRKPNRGSREWERNQNIINACTKDMPPMGSPVIPTDLPLRASPSHIPSVVVLPITQQGYQHEYVDQPKMSEVVAQMALEDQAATLEYKTIKEHLSSKSPNHGVNLVENLDSLPPKVPQREASLGPPGTSLSQTGLSKRLEMQHSSSYGLEYKRSYPTNSLTRSHQTTTLKRNNTNSSNSSHLSRNQSFGRGDNPPPAPQRVDSIQVHSSQPSGQAVTVSRQPSLNAYNSLTRSGLKRTPSLKPDVPPKPSFAPLSTSMKPNDACT

Key:
PlxnA2-A396E [1] = target: PlxnA2-A396E (UniProt P70207); assay: in situ binding of AP fusion proteins to cells; conditioned media of HEK293 cells with Sema6A-AP or PlxnA2-AP applied to COS-7 cells transfected with combinations of Sema6A and PlxnA2 constructs; bound AP seen in situ
[2] = target: PlxnA2-FL (full-length Plexin-A2) (UniProt P70207); assay: as above
PlxnA2-A396E [3] = target: PlxnA2-A396E (UniProt P70207); assay: co-IP; co-transfected COS-7 cells lysed in NP-40 buffer (10mM HEPES pH 7.5; 100mM NaCl, 2mM EDTA, 0.5% NP-40); 2h at 4°C with anti-PlexinA2 or anti-Sema6A; protein A/G sepharose; blots with anti-PlxnA2 and anti-Sema6A
[4] = target: PlxnA2-FL (full-length Plexin-A2) (UniProt P70207); assay: as above

| binding (PlxnA2-A396E [1]) | binding [2] | binding (PlxnA2-A396E [3]) | binding [4] | Binder |
| --- | --- | --- | --- | --- |
| no binding | binds |  |  | B1 |
|  |  | binds | binds | B2 |
